Drawing on publication PMC10163120, this text covers binding for one molecule.

This experiment has as its target T1, P2X4 receptor (mouse (endogenous in BMDM)) (UniProt Q9JJX6).
T1 sequence: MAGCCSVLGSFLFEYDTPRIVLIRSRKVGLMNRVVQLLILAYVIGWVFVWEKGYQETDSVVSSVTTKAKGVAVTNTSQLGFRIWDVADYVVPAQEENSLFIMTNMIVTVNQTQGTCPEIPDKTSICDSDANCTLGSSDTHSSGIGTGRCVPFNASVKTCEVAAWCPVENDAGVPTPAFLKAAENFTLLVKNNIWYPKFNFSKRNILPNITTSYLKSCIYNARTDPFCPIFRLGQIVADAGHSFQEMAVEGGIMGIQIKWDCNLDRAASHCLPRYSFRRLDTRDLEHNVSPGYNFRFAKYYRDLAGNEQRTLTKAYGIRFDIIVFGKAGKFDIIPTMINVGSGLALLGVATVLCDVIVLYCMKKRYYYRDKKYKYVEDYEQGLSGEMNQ
Put plainly: affinity purification with mass spectrometry; anti-P2X4 antibody (Alomone Labs) crosslinked to magnetic beads, incubated o/n at 4 °C with CL48-solubilised membrane-enriched fractions of BMDM from WT and P2X4 KO mice; eluates analysed by LC MS/MS; two independent experiments.

Results are given in words; binding and its absence hold for the method and conditions named. Binding seen in cells or lysates may run through a third protein. Here binding means that the protein was enriched with, or labelled near, the bait; the list need not be complete.

B1: Apolipoprotein E (protein, UniProt P08226 19-311)
chain: EGEPEVTDQLEWQSNQPWEQALNRFWDYLRWVQTLSDQVQEELQSSQVTQELTALMEDTMTEVKAYKKELEEQLGPVAEETRARLGKEVQAAQARLGADMEDLRNRLGQYRNEVHTMLGQSTEEIRARLSTHLRKMRKRLMRDAEDLQKRLAVYKAGAREGAERGVSAIRERLGPLVEQGRQRTANLGAGAAQPLRDRAQAFGDRIRGRLEEVGNQARDRLEEVREHMEEVRSKMEEQTQQIRLQAEIFQARLKGWFEPIVEDMHRQWANLMEKIQASVATNPIITPVAQENQ
For B1, the binding result is “binds”.
